Laboratory results taken from patent US10729700B2, “Methods and compositions of bile acids and salts for reduction of fat” (priority 2014, dated 2020).
At least one compound was matched to its structure with a doubt left. Some of these results come from one statement about several compounds together.

What was measured:
[1] = Stability of bile salts in aqueous solution; conditions: 1% (w/v), 10 mM phosphate buffer, 25° C.
[2] = system: Inguinal fat (subcutaneous fat) pads; experiment: Ex vivo fat lysis assay (MTT); format: cell-based, diet induced obese mice; set-up: key to the marks not given beside the values; conditions: summary grade, Table 4
[3] = system: inguinal fat pads of obese mice; experiment: Quantitation of in vivo necrotic area (TTC staining) and histology of injected fat pads; conditions: summary grade, Table 4
3T3-L1 adipocytes = experiment: Cell lysis effect by detergent in vitro (MTT assay); format: cell-based; conditions: summary grade, Table 4
mice skin = experiment: In vivo monitoring of adverse events on the skin; conditions: summary grade, Table 4

Compound | pH in which aqueous solution remained stable [1] | Ex vivo cell lysis effect [2] | In vivo cell lysis effect [3] | In vitro cell lysis effect (3T3-L1 adipocytes) | Adverse event: skin (mice skin)
C[C@H](CCC(=O)O)[C@H]1CC[C@H]2[C@@H]3[C@H](O)C[C@@H]4C[C@H](O)CC[C@]4(C)[C@H]3CC[C@]12C [CDCA, chenodeoxycholate] | < 7.4 |  |  |  | 
C[C@H](CCC(=O)O)[C@H]1CC[C@H]2[C@@H]3C[C@H](O)[C@@H]4C[C@H](O)CC[C@]4(C)[C@H]3CC[C@]12C [HDCA, hyodeoxycholate] | < 7.4 | ++ | + | ++ | +
C[C@H](CCC(=O)NCCS(=O)(=O)O)[C@H]1CC[C@H]2[C@@H]3[C@@H](O)C[C@@H]4C[C@H](O)CC[C@]4(C)[C@H]3CC[C@]12C [TUDCA, taurourosodeoxycholate] |  |  |  | − | 
